From the supplement of paper PMC8728848
The list shows a part of the results.

Experiments:
Assay in all cases: glycan array binding signal (z-score within array); higher = stronger binding
Details in all cases: glycan notation: IUPAC condensed, linker removed
[1] = target: Neu5Ac(a2-3)Gal(b1-3)GlcNAc(b1-6)GalNAc
Outline: (§1)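 Columns mapping to the same glycan were averaged after glycan names were converted to IUPAC-condensed notation. The data come from 3228 arrays in the Consortium for Functional Glycomics database, limited to those with an available protein sequence. Binding is reported as a within-array Z-score averaged across arrays of one protein sequence and across linkers.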

[2] = target: Neu5Ac(a2-3)Gal(b1-3)GlcNAc6S
Outline: as §1

[3] = target: Neu5Ac(a2-3)Gal(b1-3)[Fuc(a1-4)]GlcNAc
Outline: as §1

[4] = target: Neu5Ac(a2-3)Gal(b1-3)[Fuc(a1-4)]GlcNAc(b1-3)Gal(b1-3)[Fuc(a1-4)]GlcNAc
Outline: as §1

[5] = target: Neu5Ac(a2-3)Gal(b1-3)[Fuc(a1-4)]GlcNAc(b1-3)Gal(b1-4)[Fuc(a1-3)]GlcNAc
Outline: as §1

[6] = target: Neu5Ac(a2-3)Gal(b1-3)[GlcNAc(b1-6)]GalNAc
Outline: as §1

[7] = target: Neu5Ac(a2-3)Gal(b1-3)[Neu5Ac(a2-6)]GalNAc
Outline: as §1

[8] = target: Neu5Ac(a2-3)Gal(b1-3)[Neu5Ac(a2-6)]GlcNAc(b1-3)[Fuc(a1-3)[Gal(b1-4)]GlcNAc(b1-6)]Gal(b1-4)Glc
Outline: as §1

[9] = target: Neu5Ac(a2-3)Gal(b1-3)]Neu5Ac(a2-3)Gal(b1-4)]GlcNAc
Outline: as §1

Neu5Ac(a2-3)Gal(b1-4)Glc = target: Neu5Ac(a2-3)Gal(b1-4)Glc
Outline: as §1

[10] = target: Neu5Ac(a2-3)Gal(b1-4)GlcNAc
Outline: as §1

[11] = target: Neu5Ac(a2-3)Gal(b1-4)GlcNAc(b1-2)Man
Outline: as §1

[12] = target: Neu5Ac(a2-3)Gal(b1-4)GlcNAc(b1-2)Man(a1-3)[GlcNAc(b1-4)][Neu5Ac(a2-3)Gal(b1-4)GlcNAc(b1-2)Man(a1-6)]Man(b1-4)GlcNAc(b1-4)GlcNAc
Outline: as §1

[13] = target: Neu5Ac(a2-3)Gal(b1-4)GlcNAc(b1-2)Man(a1-3)[Neu5Ac(a2-3)Gal(b1-4)GlcNAc(b1-2)Man(a1-6)]Man(b1-4)GlcNAc(b1-4)GlcNAc
Outline: as §1

[14] = target: Neu5Ac(a2-3)Gal(b1-4)GlcNAc(b1-2)Man(a1-3)[Neu5Ac(a2-3)Gal(b1-4)GlcNAc(b1-2)Man(a1-6)]Man(b1-4)GlcNAc(b1-4)[Fuc(a1-6)]GlcNAc
Outline: as §1

[15] = target: Neu5Ac(a2-3)Gal(b1-4)GlcNAc(b1-2)Man(a1-3)[Neu5Ac(a2-6)Gal(b1-4)GlcNAc(b1-2)Man(a1-6)]Man(b1-4)GlcNAc(b1-4)GlcNAc
Outline: as §1

[16] = target: Neu5Ac(a2-3)Gal(b1-4)GlcNAc(b1-2)[Neu5Ac(a2-3)Gal(b1-4)GlcNAc(b1-4)]Man(a1-3)[GlcNAc(b1-4)][Neu5Ac(a2-3)Gal(b1-4)GlcNAc(b1-2)[Neu5Ac(a2-3)Gal(b1-4)GlcNAc(b1-6)]Man(a1-6)]Man(b1-4)GlcNAc(b1-4)GlcNAc
Outline: as §1

[17] = target: Neu5Ac(a2-3)Gal(b1-4)GlcNAc(b1-2)[Neu5Ac(a2-3)Gal(b1-4)GlcNAc(b1-4)]Man(a1-3)[GlcNAc(b1-4)][Neu5Ac(a2-3)Gal(b1-4)GlcNAc(b1-4)Man(a1-6)]Man(b1-4)GlcNAc(b1-4)GlcNAc
Outline: as §1

[18] = target: Neu5Ac(a2-3)Gal(b1-4)GlcNAc(b1-2)[Neu5Ac(a2-3)Gal(b1-4)GlcNAc(b1-6)]Man(a1-6)[Neu5Ac(a2-3)Gal(b1-4)GlcNAc(b1-2)Man(a1-3)][GlcNAc(b1-4)]Man(b1-4)GlcNAc(b1-4)GlcNAc
Outline: as §1

[19] = target: Neu5Ac(a2-3)Gal(b1-4)GlcNAc(b1-3)Gal
Outline: as §1

[20] = target: Neu5Ac(a2-3)Gal(b1-4)GlcNAc(b1-3)Gal(b1-3)GlcNAc
Outline: as §1

[21] = target: Neu5Ac(a2-3)Gal(b1-4)GlcNAc(b1-3)Gal(b1-4)GlcNAc
Outline: as §1

[22] = target: Neu5Ac(a2-3)Gal(b1-4)GlcNAc(b1-3)Gal(b1-4)GlcNAc(b1-2)Man(a1-3)[Neu5Ac(a2-3)Gal(b1-4)GlcNAc(b1-3)Gal(b1-4)GlcNAc(b1-2)Man(a1-6)]Man(b1-4)GlcNAc(b1-4)GlcNAc
Outline: as §1

[23] = target: Neu5Ac(a2-3)Gal(b1-4)GlcNAc(b1-3)Gal(b1-4)GlcNAc(b1-3)Gal(b1-4)GlcNAc
Outline: as §1

[24] = target: Neu5Ac(a2-3)Gal(b1-4)GlcNAc(b1-3)Gal(b1-4)GlcNAc(b1-3)Gal(b1-4)GlcNAc(b1-2)Man(a1-3)[Neu5Ac(a2-3)Gal(b1-4)GlcNAc(b1-3)Gal(b1-4)GlcNAc(b1-3)Gal(b1-4)GlcNAc(b1-2)Man(a1-6)]GalNAc
Outline: as §1

[25] = target: Neu5Ac(a2-3)Gal(b1-4)GlcNAc(b1-3)Gal(b1-4)GlcNAc(b1-3)GalNAc
Outline: as §1

[26] = target: Neu5Ac(a2-3)Gal(b1-4)GlcNAc(b1-3)Gal(b1-4)GlcNAc(b1-3)[Neu5Ac(a2-3)Gal(b1-4)GlcNAc(b1-3)Gal(b1-4)GlcNAc(b1-6)]GalNAc
Outline: as §1

[27] = target: Neu5Ac(a2-3)Gal(b1-4)GlcNAc(b1-3)Gal(b1-4)GlcNAc(b1-6)[Gal(b1-3)]GalNAc
Outline: as §1

[28] = target: Neu5Ac(a2-3)Gal(b1-4)GlcNAc(b1-3)Gal(b1-4)[Fuc(a1-3)]GlcNAc
Outline: as §1

[29] = target: Neu5Ac(a2-3)Gal(b1-4)GlcNAc(b1-3)GalNAc
Outline: as §1

[30] = target: Neu5Ac(a2-3)Gal(b1-4)GlcNAc(b1-3)[Neu5Ac(a2-3)Gal(b1-4)GlcNAc(b1-6)]GalNAc
Outline: as §1

[31] = target: Neu5Ac(a2-3)Gal(b1-4)GlcNAc(b1-6)GalNAc
Outline: as §1

[32] = target: Neu5Ac(a2-3)Gal(b1-4)GlcNAc(b1-6)[Gal(b1-3)]GalNAc
Outline: as §1

[33] = target: Neu5Ac(a2-3)Gal(b1-4)GlcNAc(b1-6)[Neu5Ac(a2-3)Gal(b1-3)]GalNAc
Outline: as §1

[34] = target: Neu5Ac(a2-3)Gal(b1-4)GlcNAc6S
Outline: as §1

[35] = target: Neu5Ac(a2-3)Gal(b1-4)[Fuc(a1-3)]GlcNAc
Outline: as §1

[36] = target: Neu5Ac(a2-3)Gal(b1-4)[Fuc(a1-3)]GlcNAc(b1-2)Man
Outline: as §1

[37] = target: Neu5Ac(a2-3)Gal(b1-4)[Fuc(a1-3)]GlcNAc(b1-3)Gal
Outline: as §1

[38] = target: Neu5Ac(a2-3)Gal(b1-4)[Fuc(a1-3)]GlcNAc(b1-3)Gal(b1-4)GlcNAc
Outline: as §1

[39] = target: Neu5Ac(a2-3)Gal(b1-4)[Fuc(a1-3)]GlcNAc(b1-3)Gal(b1-4)[Fuc(a1-3)]GlcNAc(b1-3)Gal(b1-4)[Fuc(a1-3)]GlcNAc
Outline: as §1

[40] = target: Neu5Ac(a2-3)Gal(b1-4)[Fuc(a1-3)]GlcNAc(b1-3)GalNAc
Outline: as §1

[41] = target: Neu5Ac(a2-3)Gal(b1-4)[Fuc(a1-3)]GlcNAc(b1-6)[Gal(b1-3)]GalNAc
Outline: as §1

[42] = target: Neu5Ac(a2-3)Gal(b1-4)[Fuc(a1-3)]GlcNAc(b1-6)[Neu5Ac(a2-3)Gal(b1-3)]GalNAc
Outline: as §1

[43] = target: Neu5Ac(a2-3)Gal(b1-4)[Fuc(a1-3)]GlcNAc6S
Outline: as §1

[44] = target: Neu5Ac(a2-3)Gal6S(b1-4)GlcNAc
Outline: as §1

B1: CD34 (Homo sapiens), P28906 (protein)
chain: MGSSHHHHHHSSGLVPRGSHMSTSLATSPTKPYTSSSPILSDIKAEIKCSGIREVKLTQGICLEQNKTSSCAEFKKDRGEGLARVLCGEEQADADAGAQVCSLLLAQSEVRPQCLLLVLANRTEISSKLQLMKKHQSDLKKLGILDFTEQDVASHQSYSQKT
Which “glycan array binding signal (z-score)” value [1] does the source give for B1 here?
The value was 0.833.

And the “glycan array binding signal (z-score)” value [2]?
Its value is 0.142.

What about the “glycan array binding signal (z-score)” value [3] of the same binder?
The value was 0.223.

And the “glycan array binding signal (z-score)” value [4]?
Its value is 1.31.

What about the “glycan array binding signal (z-score)” value [5] of the same binder?
Its value is -0.478.

What about the “glycan array binding signal (z-score)” value [6] of the same binder?
Its value is -0.679.

And the “glycan array binding signal (z-score)” value [7]?
Its value is -0.495.

And the “glycan array binding signal (z-score)” value [8]?
The value was -0.026.

What about the “glycan array binding signal (z-score)” value [9] of the same binder?
The value was 0.127.

What about the “glycan array binding signal (z-score)” value (Neu5Ac(a2-3)Gal(b1-4)Glc) of the same binder?
Its value is 0.744.

What about the “glycan array binding signal (z-score)” value [10] of the same binder?
The value was -0.053.

And the “glycan array binding signal (z-score)” value [11]?
The value was 1.1.

And the “glycan array binding signal (z-score)” value [12]?
Its value is 0.259.

What about the “glycan array binding signal (z-score)” value [13] of the same binder?
Its value is -0.754.

What about the “glycan array binding signal (z-score)” value [14] of the same binder?
Its value is -0.231.

What about the “glycan array binding signal (z-score)” value [15] of the same binder?
Its value is 0.629.

And the “glycan array binding signal (z-score)” value [16]?
The value was 0.342.

And the “glycan array binding signal (z-score)” value [17]?
The value was -0.357.

What about the “glycan array binding signal (z-score)” value [18] of the same binder?
Its value is 0.089.

And the “glycan array binding signal (z-score)” value [19]?
The value was 0.166.

And the “glycan array binding signal (z-score)” value [20]?
Its value is -0.171.

And the “glycan array binding signal (z-score)” value [21]?
The value was -0.706.

And the “glycan array binding signal (z-score)” value [22]?
The value was 0.971.

And the “glycan array binding signal (z-score)” value [23]?
The value was -0.558.

What about the “glycan array binding signal (z-score)” value [24] of the same binder?
Its value is 1.37.

And the “glycan array binding signal (z-score)” value [25]?
The value was 0.028.

What about the “glycan array binding signal (z-score)” value [26] of the same binder?
Its value is -0.111.

What about the “glycan array binding signal (z-score)” value [27] of the same binder?
Its value is -0.15.

And the “glycan array binding signal (z-score)” value [28]?
Its value is -0.028.

What about the “glycan array binding signal (z-score)” value [29] of the same binder?
Its value is 0.052.

What about the “glycan array binding signal (z-score)” value [30] of the same binder?
Its value is -0.068.

And the “glycan array binding signal (z-score)” value [31]?
Its value is 0.368.

And the “glycan array binding signal (z-score)” value [32]?
Its value is 0.07.

And the “glycan array binding signal (z-score)” value [33]?
The value was -0.271.

What about the “glycan array binding signal (z-score)” value [34] of the same binder?
Its value is -0.319.

What about the “glycan array binding signal (z-score)” value [35] of the same binder?
The value was -0.826.

And the “glycan array binding signal (z-score)” value [36]?
Its value is 0.146.

What about the “glycan array binding signal (z-score)” value [37] of the same binder?
The value was -0.272.

And the “glycan array binding signal (z-score)” value [38]?
Its value is 0.795.

And the “glycan array binding signal (z-score)” value [39]?
The value was -0.727.

And the “glycan array binding signal (z-score)” value [40]?
Its value is 1.65.

And the “glycan array binding signal (z-score)” value [41]?
The value was -0.095.

And the “glycan array binding signal (z-score)” value [42]?
The value was 0.447.

What about the “glycan array binding signal (z-score)” value [43] of the same binder?
The value was 0.216.

What about the “glycan array binding signal (z-score)” value [44] of the same binder?
Its value is 0.08.
